Test results reported in patent US20030190671A1, “Use of metabolic phenotyping in individualized treatment with amonafide” (McGill University, priority 2001, published 2003).

Test system: 1X-Ab
Test: Competitive antigen ELISA, cross-reactivity of 1X-Ab
Assay type: binding, rabbit
Settings: for [1X] × 10^6 (M) determined by ELISA: fixed 1X concentration 3 × 10^−6 M, printed value = [1X] × 10^6; for apparent increase of 1X concentration: fixed 1X concentration 3×10^−6 M
Protocol: Competitive Antigen ELISA
(§1) Buffers and water without additives are filtered through millipore filters and kept for 1 week. BSA, antibodies, Tween™ 20 and horse radish peroxidase conjugates are added to these buffers and water just prior to use. Urine samples are usually collected 4 hours after drinking a cup of coffee (instant or brewed with approximately 100 mg of caffeine per cup) and stored at −80° C. The urine samples are diluted 10 times with sodium phosphate buffer (620 mosm, pH 7.50) and are subsequently diluted with water to give concentrations of AAMU and 1X no higher than 3×10^−6 M in the ELISA. All the pipettings are done with an eight-channel pipette, except those of the antibody and sample solutions. Starting with the last well, 100 μL of a carbonate buffer (100 mM, pH 9.6) containing 2.5 μg mL-1 antibodies are added to each well. After 90 min. at room temperature, the wells are washed three times with 100 mL of TPB: isotonic sodium phosphate buffer (310 mosm, pH 7.50) containing 0.05% Tween™ 20.
After the initial wash, unoccupied sites are blocked by incubation for 90 min. at room temperature with 100 μL TBP containing 3% BSA. The wells are washed four times with 100 […] TPB. […] The microplate is gently shaken with an orbital shaker at room temperature for 3-4 hours. The wells are washed three times with 100 μL TPB containing 1% BSA and three times with water containing 0.05% Tween™ 20. To the washed plate is added 150 μL of a substrate buffer composed of citric acid (25 mM) and sodium phosphate dibasic buffer (50 mM, pH 5.0) containing 0.06% hydrogen peroxide and 0.04% o-phenylenediamine hydrochloride.
as §1, with “were” for “are”, “They were” for “The urine samples are”, “mL^−1” for “mL-1”, “was pipetted.” for “are added to each well.”, “μL” for “mL”
After the initial wash, unoccupied sites were blocked by incubation for 90 min. at room temperature with 100 μL TBP containing 3% BSA. The wells were washed four times with 100 μL TPB. […] The microplate was gently shaken with an orbital shaker at room temperature for 3-4 hours. The wells were washed three times with 100 μL with TPB containing 1% BSA and three times with water containing 0.05% Tween™ 20. To the washed plate was added 150 μL of a substrate buffer composed of citric acid (25 mM) and sodium phosphate dibasic buffer (50 mM, pH 5.0) containing 0.06% hydrogen peroxide and 0.04% o-phenylenediamine hydrochloride. After 20 min. at room temperature with shaking, the reaction was stopped with 50 μL of 2.5 N HCl.
The cross reactivities of AAMU-Ab and 1X-Ab were tested using a wide variety of caffeine metabolites and structural analogs (Table 2 below).

## Cn1c(=O)[nH]c2nc[nH]c2c1=O [1-Methyl Xanthine (1X), 1-methylxanthine]
1U:1X ratio 0.0
  [1X] × 10^6 (M) determined by ELISA: 3.00 M
1U:1X ratio 0.50
  [1X] × 10^6 (M) determined by ELISA: 2.75 M
1U:1X ratio 1.00
  [1X] × 10^6 (M) determined by ELISA: 3.25 M
1U:1X ratio 1.50
  [1X] × 10^6 (M) determined by ELISA: 3.25 M
1U:1X ratio 2.00
  [1X] × 10^6 (M) determined by ELISA: 3.60 M
1U:1X ratio 2.5
  apparent increase of 1X concentration: 22%
1U:1X ratio 2.50
  [1X] × 10^6 (M) determined by ELISA: 3.65 M
1U:1X ratio 3.0
  apparent increase of 1X concentration: 32%
1U:1X ratio 3.00
  [1X] × 10^6 (M) determined by ELISA: 3.95 M
1U:1X ratio 4.00
  [1X] × 10^6 (M) determined by ELISA: 4.20 M
1U:1X ratio 5.00
  [1X] × 10^6 (M) determined by ELISA: 4.30 M
1U:1X ratio 6.00
  [1X] × 10^6 (M) determined by ELISA: 4.50 M
1U:1X ratio 8.00
  [1X] × 10^6 (M) determined by ELISA: 4.30 M
